Test results: publication PMC6345502, “Vancomycin does not affect the enzymatic activities of purified VanSA” (PLoS ONE, 2019)
Results are given in words; binding and its absence hold for the method and conditions named. Some entries that bind do so weakly or less than the wild type.

Biological target: cytosolic domain of VanSA (enterococci) (UniProt Q06240)
Test: SEC; size exclusion chromatography of cVanSA, data not shown; both purified

B1: cytosolic domain of VanSA (domain or fragment, UniProt Q06240 98-384)
chain: MVKFAKYFDEINTGIDVLIQNEDKQIELSAEMDVMEQKLNTLKRTLEKREQDAKLAEQRKNDVVMYLAHDIKTPLTSIIGYLSLLDEAPDMPVDQKAKYVHITLDKAYRLEQLIDEFFEITRYNLQTITLTKTHIDLYYMLVQMTDEFYPQLSAHGKQAVIHAPEDLTVSGDPDKLARVFNNILKNAAAYSEDNSIIDITAGLSGDVVSIEFKNTGSIPKDKLAAIFEKFYRLDNARSSDTGGAGLGLAIAKEIIVQHGGQIYAESNDNYTTFRVELPAMPDLVDKRRS
With B1 the binding was “binds”.
